# Results deposited as PubChem BioAssay AID1259322 (Peter MacCallum Cancer Centre, 2017)
# Aim: 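Confirm kinase hits connecting PAR2, a protease receptor, with TRPV4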 (follow-up of hits)
# Cells: human HEK293 cells with stable inducible TRPV4
# Reagents: single siRNA against human genes
# Treatment: PAR2 activation; agonist identity, dose and timing not stated
# Detection: 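Intracellular calcium followed live by Fura-2 imaging; early peak reflects PAR2, later plateau reflects TRPV4 opening; each as % of mock transfection on the same plate, averaged over two plates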
# Direction: TRPV4 plateau calcium, % of mock: higher = stronger PAR2-dependent TRPV4 calcium entry; PAR2 peak calcium, % of mock: higher = stronger direct PAR2 calcium response
# Hit rule: 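a knock-down counts as active when the PAR2 peak exceeds 79% of mock yet the TRPV4 plateau is below 90% of mock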
# The whole screen tested 208 reagents; shown is a part drawn at random. Over the whole deposit, 72 (35%) are marked active. 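Four separate siRNAs per kinase gene, 52 genes in all; PAR2 agonist unnamed, with its dose and timing unknown.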 A number with no mark means an inactive call. The numbers tell different reagents against one gene apart. Reagent sequences are not shown. Not given: the amount of reagent, the time to read-out.
target gene,siRNA no.,"TRPV4 plateau calcium, % of mock","PAR2 peak calcium, % of mock"
COMMD3,1,66.1,78.7
COMMD3,2,99.1,94.3
COMMD3,3,74.9,75.1
COMMD3,4,58.9,56.5
HK2,1,60,58.7
HK2,2,81.8 (active),84.7
HK2,3,101,98.1
HK2,4,81.4 (active),90.2
FASTK,1,96.2,102
FASTK,2,87.1 (active),88.8
FASTK,3,80 (active),90.8
FASTK,4,98.5,101
AAK1,1,80.1 (active),87.3
AAK1,2,97.5,89.7
AAK1,3,99.9,105
AAK1,4,112,100
CHKA,1,95.6,101
CHKA,2,69.1,64.1
CHKA,3,101,104
CHKA,4,91.6,84.1
MAST1,1,87.8,86.4
MAST1,2,85.1 (active),94.5
MAST1,3,84.1,88.2
MAST1,4,76.5 (active),93.6
CDKL5,1,100,98
CDKL5,2,96.3,84
CDKL5,3,103,103
CDKL5,4,85.9 (active),98.1
PRKAB2,1,69.2,68.1
PRKAB2,2,87 (active),95.9
PRKAB2,3,57.1,72.8
PRKAB2,4,85.7 (active),90.9

Reagents listed above called active, once more:
target gene,siRNA no.,"TRPV4 plateau calcium, % of mock","PAR2 peak calcium, % of mock"
HK2,2,81.8 (active),84.7
HK2,4,81.4 (active),90.2
FASTK,2,87.1 (active),88.8
FASTK,3,80 (active),90.8
AAK1,1,80.1 (active),87.3
MAST1,2,85.1 (active),94.5
MAST1,4,76.5 (active),93.6
CDKL5,4,85.9 (active),98.1
PRKAB2,2,87 (active),95.9
PRKAB2,4,85.7 (active),90.9

Continued.
target gene,siRNA no.,"TRPV4 plateau calcium, % of mock","PAR2 peak calcium, % of mock"
IGF2R,1,80.1,75.7
IGF2R,2,91.1,103
IGF2R,3,91.4,80.5
IGF2R,4,69.3,75
TNIK,1,80.4 (active),90.4
TNIK,2,86.1,77
TNIK,3,94,101
TNIK,4,94.5,87.5
CAMKV,1,84.7 (active),94.4
CAMKV,2,99.6,92
CAMKV,3,99.2,105
CAMKV,4,83.2,72.9
PRKX,1,90.9,102
PRKX,2,103,109
PRKX,3,106,101
PRKX,4,70.2 (active),84.6
RIOK1,1,102,96.3
RIOK1,2,94.6,91.8
RIOK1,3,78.4 (active),84.4
RIOK1,4,84.7 (active),91.2
RPS6KA3,1,97.8,95.7
RPS6KA3,2,99.1,109
RPS6KA3,3,98.1,103
RPS6KA3,4,97.7,104
LIMK2,1,89.2 (active),102
LIMK2,2,72.4 (active),79.6
LIMK2,3,79.1,72.3
LIMK2,4,96.8,102
